Data as given in PubChem BioAssay AID1259326 (Drosophila RNAi Screening Center, 2017)

Purpose: 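Knock-downs that shift cellular ATP after a high zinc chloride dose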
System: Drosophila S2R+ cells
Knock-down reagent: long dsRNA against Drosophila genes
Timing: about 5 days (4 days of RNAi, then 1 day of zinc)
Treatment: zinc chloride added to 15 mM final for one day
Measured: 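Cellular ATP measured by luciferase light as a viable-cell proxy, after 4 days of RNAi and 1 day in 15 mM zinc chloride; replicate z-scores averaged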
Reading the numbers: averaged z-score: higher = more ATP than other wells, i.e. more surviving cells, after zinc; ATP luminescence: higher = more ATP, i.e. more surviving cells
Rule for the call: 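Called active when the averaged z-score lies outside -1.5 to 1.5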
This is a random part of 573 deposited reagents. Over the whole deposit, 39 (6.8%) got an active call. 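All actives have raised ATP, meaning more surviving cells; in these data active calls sit at averaged z-scores near 1.5 or above.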 Raw values vary from plate to plate and are shown uncorrected. A number with no mark means an inactive call. Reagents against one gene are numbered here. No sequences are given here. The record does not give: the amount of reagent.

no.	target gene	dsRNA no.	averaged z-score	ATP luminescence, replicate 1	ATP luminescence, replicate 2
1	Atg17 (Autophagy-related 17)	1	-0.0831	80630	93747
2	Atg17 (Autophagy-related 17)	2	-0.235	65142	71659
3	Plod (procollagen lysyl hydroxylase)	1	-0.368	93444	63942
4	Plod (procollagen lysyl hydroxylase)	2	-0.249	73477	67342
5	Plod (procollagen lysyl hydroxylase)	3	0.096	68058	81916
6	Mtl (Mig-2-like)	1	-0.39	88280	71985
7	Mtl (Mig-2-like)	2	-0.191	75675	75090
8	Mtl (Mig-2-like)	3	-0.25	63067	81583
9	whd (withered)	1	-0.131	78537	99860
10	whd (withered)	2	-0.0471	60683	77525
11	whd (withered)	3	1.37	92192	1.05e5

Limited to “averaged z-score” (4 entries from above):
Atg17 (Autophagy-related 17) #2: -0.235
Plod (procollagen lysyl hydroxylase) #1: -0.368
Plod (procollagen lysyl hydroxylase) #2: -0.249
Plod (procollagen lysyl hydroxylase) #3: 0.096

The list goes on:
no.	target gene	dsRNA no.	averaged z-score	ATP luminescence, replicate 1	ATP luminescence, replicate 2
12	Parp1 (Poly-(ADP-ribose) polymerase 1)	1	-0.204	87611	79755
13	Parp1 (Poly-(ADP-ribose) polymerase 1)	2	-0.582	86342	42696
14	Parp1 (Poly-(ADP-ribose) polymerase 1)	3	0.101	75278	81497
15	Galphao (G protein alpha subunit o)	1	-0.11	98025	76342
16	Galphao (G protein alpha subunit o)	2	-0.159	75930	71500
17	Galphao (G protein alpha subunit o)	3	-0.111	67411	76616
18	GstO3 (Glutathione S transferase O3)	1	0.288	89831	80994
19	GstO3 (Glutathione S transferase O3)	2	-0.292	64388	75347
20	Rpt6 (Regulatory particle triple-A ATPase 6)	1	-0.205	92260	73717
21	Rpt6 (Regulatory particle triple-A ATPase 6)	2	-0.259	76559	70733
22	Rpt6 (Regulatory particle triple-A ATPase 6)	3	-0.384	62381	68332
23	Rpt1 (Regulatory particle triple-A ATPase 1)	1	0.383	97196	88932
24	Rpt1 (Regulatory particle triple-A ATPase 1)	2	0.471	89104	83855
25	Rpt1 (Regulatory particle triple-A ATPase 1)	3	1.13	85604	94371
26	niki (nimA-like kinase)	1	-0.13	1.08e5	67577
27	niki (nimA-like kinase)	2	0.237	74043	76102
28	niki (nimA-like kinase)	3	-0.372	73186	68607
